Laboratory results: PubChem BioAssay AID1259308 (NCATS, 2017)
Aim: 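Knock-downs that increase output of a recombinant reporter protein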 (primary screen). Cell system: human HEK293 embryonic kidney cells stably expressing firefly luciferase (HEK-CMV-Luc2-Hygro). Reagent: single siRNA against human genes, 0.8 pmol siRNA per well. Timing: 72 h. Measured: 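Luciferase light (ONE-Glo) measured on one replicate plate set and viability (CellTiter-Glo) on the other, scaled to a negative control siRNA, with robust z-scores and luciferase per cell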. Reading the numbers: total luciferase, z-score and total luciferase, % of control: higher = more reporter protein produced. Call rule: 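An siRNA counts as active if its total luciferase robust z-score exceeds 3; genes with two or more such siRNAs out of three were retested with fresh siRNAs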. Meaning of the calls: active = raised luciferase; inactive = no rise.
Shown is a random part of about 59,000 deposited reagents. About 1,510 of them (2.6%) were called active. 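Calls use total luciferase alone and ignore viability, so some active siRNAs may act by altering cell number.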 The numbers tell different reagents against one gene apart. Not all columns of the deposit are shown.

target gene	reagent	total luciferase, z-score	total luciferase, % of control	Call
JAKMIP1-DT (JAKMIP1 divergent transcript)	1	0.817	98.1	inactive
JAKMIP1-DT (JAKMIP1 divergent transcript)	2	1.8	118	inactive
JAKMIP1-DT (JAKMIP1 divergent transcript)	3	-0.613	69.7	inactive
TNFSF4 (TNF superfamily member 4)	1	0.344	88.7	inactive
TNFSF4 (TNF superfamily member 4)	2	-0.342	75.1	inactive
TNFSF4 (TNF superfamily member 4)	3	-0.169	78.5	inactive
SPRED2 (sprouty related EVH1 domain containing 2)	1	-1.39	54.3	inactive
SPRED2 (sprouty related EVH1 domain containing 2)	2	0.196	85.8	inactive
SPRED2 (sprouty related EVH1 domain containing 2)	3	-0.365	74.6	inactive
ZNF350 (zinc finger protein 350)	1	1.73	116	inactive
ZNF350 (zinc finger protein 350)	2	0.484	91.5	inactive
ZNF350 (zinc finger protein 350)	3	-0.13	79.3	inactive
ADCY10 (adenylate cyclase 10)	1	-1.15	59	inactive
ADCY10 (adenylate cyclase 10)	2	0.786	97.5	inactive
ADCY10 (adenylate cyclase 10)	3	1.13	104	inactive
VPS51 (VPS51 subunit of GARP complex)	1	1.03	102	inactive
VPS51 (VPS51 subunit of GARP complex)	2	-1.23	57.5	inactive
VPS51 (VPS51 subunit of GARP complex)	3	0.015	82.2	inactive
TCF25 (TCF25 ribosome quality control complex subunit)	1	-1.09	60.3	inactive
TCF25 (TCF25 ribosome quality control complex subunit)	2	-0.812	65.7	inactive
TCF25 (TCF25 ribosome quality control complex subunit)	3	-1.51	51.9	inactive
LGALS3 (galectin 3)	1	1.47	111	inactive
LGALS3 (galectin 3)	2	0.681	95.4	inactive
LGALS3 (galectin 3)	3	-0.00281	81.8	inactive
KIF1C (kinesin family member 1C)	1	0.129	84.4	inactive
KIF1C (kinesin family member 1C)	2	1.54	112	inactive
KIF1C (kinesin family member 1C)	3	-0.259	76.7	inactive
MRGPRX2 (MAS related GPR family member X2)	1	0.263	87.1	inactive
MRGPRX2 (MAS related GPR family member X2)	2	-2.27	36.7	inactive
MRGPRX2 (MAS related GPR family member X2)	3	-0.188	78.2	inactive
AP3B1 (adaptor related protein complex 3 subunit beta 1)	1	-0.0408	81.1	inactive
AP3B1 (adaptor related protein complex 3 subunit beta 1)	2	-0.4	73.9	inactive
AP3B1 (adaptor related protein complex 3 subunit beta 1)	3	0.899	99.8	inactive
SPATA21 (spermatogenesis associated 21)	1	1.43	110	inactive
SPATA21 (spermatogenesis associated 21)	2	-0.858	64.8	inactive
SPATA21 (spermatogenesis associated 21)	3	-1.96	42.9	inactive
EDEM1 (ER degradation enhancing alpha-mannosidase like protein 1)	1	-0.801	66	inactive
EDEM1 (ER degradation enhancing alpha-mannosidase like protein 1)	2	-0.0617	80.7	inactive
EDEM1 (ER degradation enhancing alpha-mannosidase like protein 1)	3	0.342	88.7	inactive

Continued (6 carried over from the part before).
target gene	reagent	total luciferase, z-score	total luciferase, % of control	Call
SPATA21 (spermatogenesis associated 21)	1	1.43	110	inactive
SPATA21 (spermatogenesis associated 21)	2	-0.858	64.8	inactive
SPATA21 (spermatogenesis associated 21)	3	-1.96	42.9	inactive
EDEM1 (ER degradation enhancing alpha-mannosidase like protein 1)	1	-0.801	66	inactive
EDEM1 (ER degradation enhancing alpha-mannosidase like protein 1)	2	-0.0617	80.7	inactive
EDEM1 (ER degradation enhancing alpha-mannosidase like protein 1)	3	0.342	88.7	inactive
RUFY1 (RUN and FYVE domain containing 1)	1	-0.775	66.5	inactive
RUFY1 (RUN and FYVE domain containing 1)	2	-0.804	65.9	inactive
RUFY1 (RUN and FYVE domain containing 1)	3	-0.103	79.8	inactive
FGF7 (fibroblast growth factor 7)	1	-0.704	67.9	inactive
FGF7 (fibroblast growth factor 7)	2	-1.65	49.1	inactive
FGF7 (fibroblast growth factor 7)	3	2.58	133	inactive
RBM10 (RNA binding motif protein 10)	1	-1.8	46.1	inactive
RBM10 (RNA binding motif protein 10)	2	1.24	107	inactive
RBM10 (RNA binding motif protein 10)	3	-0.458	72.8	inactive
CTSO (cathepsin O)	1	-0.0147	81.6	inactive
CTSO (cathepsin O)	2	0.916	100	inactive
CTSO (cathepsin O)	3	0.19	85.7	inactive
MT3 (metallothionein 3)	1	-1.21	57.8	inactive
MT3 (metallothionein 3)	2	1.67	115	inactive
MT3 (metallothionein 3)	3	-0.0702	80.5	inactive
IRF1 (interferon regulatory factor 1)	1	0.68	95.4	inactive
IRF1 (interferon regulatory factor 1)	2	-2.38	34.6	inactive
IRF1 (interferon regulatory factor 1)	3	-2.12	39.8	inactive
CNST (consortin, connexin sorting protein)	1	-0.531	71.3	inactive
CNST (consortin, connexin sorting protein)	2	-0.618	69.6	inactive
CNST (consortin, connexin sorting protein)	3	1.14	105	inactive
SLC67A1	1	1.22	106	inactive
SLC67A1	2	0.0968	83.8	inactive
SLC67A1	3	3.9	160	active
TMEM161BP1 (transmembrane protein 161B pseudogene 1)	1	0.38	89.5	inactive
TMEM161BP1 (transmembrane protein 161B pseudogene 1)	2	-0.545	71	inactive
TMEM161BP1 (transmembrane protein 161B pseudogene 1)	3	0.547	92.8	inactive
CD81 (CD81 molecule)	1	0.198	85.8	inactive
CD81 (CD81 molecule)	2	0.771	97.2	inactive
CD81 (CD81 molecule)	3	2.05	123	inactive
IKBIP (IKBKB interacting protein)	1	1.14	105	inactive
IKBIP (IKBKB interacting protein)	2	0.565	93.1	inactive
IKBIP (IKBKB interacting protein)	3	0.236	86.6	inactive
PLP2 (proteolipid protein 2)	1	0.0975	83.8	inactive
PLP2 (proteolipid protein 2)	2	0.635	94.5	inactive
PLP2 (proteolipid protein 2)	3	0.231	86.5	inactive
